Assay results as given in the supplement of paper PMC11732987, “Enantioselective OTUD7B fragment discovery through chemoproteomics screening and high-throughput optimisation” (Communications Chemistry, 2025).
This is one part of the list. The data scatter; read single values as rough.

By UniProt entry, the sequences of proteins in these tests, tags left out. Where a name states a change or a piece, a line headed by the entry shows the natural chain unless it says otherwise.
UniProt Q9Y3A3: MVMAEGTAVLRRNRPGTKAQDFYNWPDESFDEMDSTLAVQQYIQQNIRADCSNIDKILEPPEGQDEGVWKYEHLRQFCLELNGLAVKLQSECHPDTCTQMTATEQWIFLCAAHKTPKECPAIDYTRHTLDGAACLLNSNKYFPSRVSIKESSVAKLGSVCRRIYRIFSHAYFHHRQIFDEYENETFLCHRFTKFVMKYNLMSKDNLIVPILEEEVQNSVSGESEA
UniProt Q6ZSS7: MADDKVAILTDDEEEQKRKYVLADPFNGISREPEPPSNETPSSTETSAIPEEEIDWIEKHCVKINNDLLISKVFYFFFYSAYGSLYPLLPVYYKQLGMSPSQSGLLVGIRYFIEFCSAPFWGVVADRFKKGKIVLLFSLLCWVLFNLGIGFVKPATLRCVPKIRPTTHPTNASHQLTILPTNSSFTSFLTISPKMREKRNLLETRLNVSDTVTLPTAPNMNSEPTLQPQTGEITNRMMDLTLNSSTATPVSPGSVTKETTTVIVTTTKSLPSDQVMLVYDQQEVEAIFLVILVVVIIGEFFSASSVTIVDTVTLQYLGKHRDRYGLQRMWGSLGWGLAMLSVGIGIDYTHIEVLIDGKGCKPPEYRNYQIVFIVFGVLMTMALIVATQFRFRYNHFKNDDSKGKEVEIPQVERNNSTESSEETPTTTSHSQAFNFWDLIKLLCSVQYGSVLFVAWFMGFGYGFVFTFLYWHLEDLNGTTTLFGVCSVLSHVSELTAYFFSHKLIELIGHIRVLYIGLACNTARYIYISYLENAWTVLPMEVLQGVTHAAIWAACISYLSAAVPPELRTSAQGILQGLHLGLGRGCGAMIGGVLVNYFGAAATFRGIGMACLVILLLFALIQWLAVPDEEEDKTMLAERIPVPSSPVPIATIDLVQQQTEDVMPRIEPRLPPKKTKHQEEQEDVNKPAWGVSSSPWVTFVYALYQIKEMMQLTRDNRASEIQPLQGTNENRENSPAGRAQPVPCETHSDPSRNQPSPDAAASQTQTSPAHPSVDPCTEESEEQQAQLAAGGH
UniProt Q6NTE8: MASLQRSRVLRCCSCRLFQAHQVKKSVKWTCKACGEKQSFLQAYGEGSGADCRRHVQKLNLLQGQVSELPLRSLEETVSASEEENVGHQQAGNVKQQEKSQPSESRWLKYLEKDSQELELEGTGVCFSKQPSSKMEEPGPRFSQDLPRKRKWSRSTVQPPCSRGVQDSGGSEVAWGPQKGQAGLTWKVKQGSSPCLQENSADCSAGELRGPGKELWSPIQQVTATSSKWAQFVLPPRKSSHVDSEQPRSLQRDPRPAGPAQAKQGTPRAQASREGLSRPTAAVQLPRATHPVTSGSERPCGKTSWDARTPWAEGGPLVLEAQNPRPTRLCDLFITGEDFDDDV
UniProt Q99797: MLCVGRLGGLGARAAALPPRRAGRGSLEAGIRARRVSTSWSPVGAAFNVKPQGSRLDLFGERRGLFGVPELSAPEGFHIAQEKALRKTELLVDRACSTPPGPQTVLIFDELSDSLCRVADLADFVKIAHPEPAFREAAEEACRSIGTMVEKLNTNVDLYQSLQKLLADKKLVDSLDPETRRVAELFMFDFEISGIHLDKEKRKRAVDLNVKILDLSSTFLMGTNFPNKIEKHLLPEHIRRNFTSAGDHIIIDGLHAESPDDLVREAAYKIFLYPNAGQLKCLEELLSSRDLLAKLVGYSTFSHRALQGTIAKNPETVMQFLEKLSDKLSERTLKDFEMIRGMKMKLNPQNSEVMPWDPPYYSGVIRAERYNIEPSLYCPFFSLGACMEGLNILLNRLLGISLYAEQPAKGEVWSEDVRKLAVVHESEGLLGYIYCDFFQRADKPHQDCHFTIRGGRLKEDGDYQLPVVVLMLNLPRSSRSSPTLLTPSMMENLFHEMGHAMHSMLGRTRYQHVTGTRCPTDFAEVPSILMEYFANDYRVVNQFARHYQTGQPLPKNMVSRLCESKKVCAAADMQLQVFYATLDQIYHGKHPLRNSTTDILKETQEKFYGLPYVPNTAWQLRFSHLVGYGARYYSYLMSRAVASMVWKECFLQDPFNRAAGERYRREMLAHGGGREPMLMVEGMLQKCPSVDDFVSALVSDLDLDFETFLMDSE
UniProt P22033: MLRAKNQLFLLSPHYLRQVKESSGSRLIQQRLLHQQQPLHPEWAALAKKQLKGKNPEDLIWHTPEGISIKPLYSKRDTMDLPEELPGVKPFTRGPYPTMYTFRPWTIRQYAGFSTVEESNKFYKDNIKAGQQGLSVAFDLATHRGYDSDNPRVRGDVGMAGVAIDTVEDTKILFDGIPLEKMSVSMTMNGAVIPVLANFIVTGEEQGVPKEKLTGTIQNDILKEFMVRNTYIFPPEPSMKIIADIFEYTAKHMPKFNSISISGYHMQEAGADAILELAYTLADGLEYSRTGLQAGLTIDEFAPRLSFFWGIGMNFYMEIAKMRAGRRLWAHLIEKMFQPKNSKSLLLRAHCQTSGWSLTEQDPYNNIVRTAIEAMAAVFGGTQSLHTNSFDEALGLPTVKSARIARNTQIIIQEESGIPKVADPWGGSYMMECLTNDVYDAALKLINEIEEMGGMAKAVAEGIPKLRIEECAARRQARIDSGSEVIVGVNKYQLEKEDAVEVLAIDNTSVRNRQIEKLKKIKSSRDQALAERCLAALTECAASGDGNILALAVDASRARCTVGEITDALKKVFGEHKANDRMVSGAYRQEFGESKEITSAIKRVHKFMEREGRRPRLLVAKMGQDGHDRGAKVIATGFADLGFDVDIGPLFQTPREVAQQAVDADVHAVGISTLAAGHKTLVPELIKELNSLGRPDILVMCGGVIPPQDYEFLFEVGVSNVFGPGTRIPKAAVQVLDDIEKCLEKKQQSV
UniProt Q96PC5: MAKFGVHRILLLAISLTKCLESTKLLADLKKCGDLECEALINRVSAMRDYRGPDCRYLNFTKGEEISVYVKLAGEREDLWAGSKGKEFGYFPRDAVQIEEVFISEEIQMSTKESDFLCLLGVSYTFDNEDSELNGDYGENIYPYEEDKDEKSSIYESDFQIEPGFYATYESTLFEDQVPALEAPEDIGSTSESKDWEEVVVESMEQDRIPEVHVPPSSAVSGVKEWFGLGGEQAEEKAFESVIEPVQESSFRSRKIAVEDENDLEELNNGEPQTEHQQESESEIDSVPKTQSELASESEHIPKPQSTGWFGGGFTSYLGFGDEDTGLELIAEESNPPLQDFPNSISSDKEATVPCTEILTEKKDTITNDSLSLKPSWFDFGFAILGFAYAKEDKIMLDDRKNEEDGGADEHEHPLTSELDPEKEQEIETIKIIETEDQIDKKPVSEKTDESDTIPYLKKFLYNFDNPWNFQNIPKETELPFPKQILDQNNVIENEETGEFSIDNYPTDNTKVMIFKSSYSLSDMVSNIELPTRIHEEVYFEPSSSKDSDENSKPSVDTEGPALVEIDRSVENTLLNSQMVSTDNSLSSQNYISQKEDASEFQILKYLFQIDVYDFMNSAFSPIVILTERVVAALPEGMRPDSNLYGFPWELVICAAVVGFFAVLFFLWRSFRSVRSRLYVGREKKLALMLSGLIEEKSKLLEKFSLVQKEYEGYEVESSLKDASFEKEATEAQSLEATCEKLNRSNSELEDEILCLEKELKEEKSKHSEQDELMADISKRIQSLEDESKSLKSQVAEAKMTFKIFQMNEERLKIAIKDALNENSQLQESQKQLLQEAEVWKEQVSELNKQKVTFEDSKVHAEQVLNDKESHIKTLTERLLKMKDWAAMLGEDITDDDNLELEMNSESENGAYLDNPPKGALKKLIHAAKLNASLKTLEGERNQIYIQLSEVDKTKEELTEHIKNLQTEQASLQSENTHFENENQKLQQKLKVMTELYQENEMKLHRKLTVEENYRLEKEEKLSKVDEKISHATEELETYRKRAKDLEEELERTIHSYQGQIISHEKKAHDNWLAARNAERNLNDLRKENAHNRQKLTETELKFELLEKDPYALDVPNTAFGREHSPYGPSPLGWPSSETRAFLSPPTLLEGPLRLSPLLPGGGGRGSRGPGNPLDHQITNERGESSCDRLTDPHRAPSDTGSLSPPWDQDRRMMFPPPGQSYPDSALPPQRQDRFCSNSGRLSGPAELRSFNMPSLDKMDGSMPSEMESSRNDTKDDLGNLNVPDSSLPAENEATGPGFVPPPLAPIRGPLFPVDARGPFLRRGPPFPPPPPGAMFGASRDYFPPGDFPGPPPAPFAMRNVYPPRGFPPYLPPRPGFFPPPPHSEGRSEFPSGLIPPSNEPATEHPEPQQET
UniProt Q5JRA6: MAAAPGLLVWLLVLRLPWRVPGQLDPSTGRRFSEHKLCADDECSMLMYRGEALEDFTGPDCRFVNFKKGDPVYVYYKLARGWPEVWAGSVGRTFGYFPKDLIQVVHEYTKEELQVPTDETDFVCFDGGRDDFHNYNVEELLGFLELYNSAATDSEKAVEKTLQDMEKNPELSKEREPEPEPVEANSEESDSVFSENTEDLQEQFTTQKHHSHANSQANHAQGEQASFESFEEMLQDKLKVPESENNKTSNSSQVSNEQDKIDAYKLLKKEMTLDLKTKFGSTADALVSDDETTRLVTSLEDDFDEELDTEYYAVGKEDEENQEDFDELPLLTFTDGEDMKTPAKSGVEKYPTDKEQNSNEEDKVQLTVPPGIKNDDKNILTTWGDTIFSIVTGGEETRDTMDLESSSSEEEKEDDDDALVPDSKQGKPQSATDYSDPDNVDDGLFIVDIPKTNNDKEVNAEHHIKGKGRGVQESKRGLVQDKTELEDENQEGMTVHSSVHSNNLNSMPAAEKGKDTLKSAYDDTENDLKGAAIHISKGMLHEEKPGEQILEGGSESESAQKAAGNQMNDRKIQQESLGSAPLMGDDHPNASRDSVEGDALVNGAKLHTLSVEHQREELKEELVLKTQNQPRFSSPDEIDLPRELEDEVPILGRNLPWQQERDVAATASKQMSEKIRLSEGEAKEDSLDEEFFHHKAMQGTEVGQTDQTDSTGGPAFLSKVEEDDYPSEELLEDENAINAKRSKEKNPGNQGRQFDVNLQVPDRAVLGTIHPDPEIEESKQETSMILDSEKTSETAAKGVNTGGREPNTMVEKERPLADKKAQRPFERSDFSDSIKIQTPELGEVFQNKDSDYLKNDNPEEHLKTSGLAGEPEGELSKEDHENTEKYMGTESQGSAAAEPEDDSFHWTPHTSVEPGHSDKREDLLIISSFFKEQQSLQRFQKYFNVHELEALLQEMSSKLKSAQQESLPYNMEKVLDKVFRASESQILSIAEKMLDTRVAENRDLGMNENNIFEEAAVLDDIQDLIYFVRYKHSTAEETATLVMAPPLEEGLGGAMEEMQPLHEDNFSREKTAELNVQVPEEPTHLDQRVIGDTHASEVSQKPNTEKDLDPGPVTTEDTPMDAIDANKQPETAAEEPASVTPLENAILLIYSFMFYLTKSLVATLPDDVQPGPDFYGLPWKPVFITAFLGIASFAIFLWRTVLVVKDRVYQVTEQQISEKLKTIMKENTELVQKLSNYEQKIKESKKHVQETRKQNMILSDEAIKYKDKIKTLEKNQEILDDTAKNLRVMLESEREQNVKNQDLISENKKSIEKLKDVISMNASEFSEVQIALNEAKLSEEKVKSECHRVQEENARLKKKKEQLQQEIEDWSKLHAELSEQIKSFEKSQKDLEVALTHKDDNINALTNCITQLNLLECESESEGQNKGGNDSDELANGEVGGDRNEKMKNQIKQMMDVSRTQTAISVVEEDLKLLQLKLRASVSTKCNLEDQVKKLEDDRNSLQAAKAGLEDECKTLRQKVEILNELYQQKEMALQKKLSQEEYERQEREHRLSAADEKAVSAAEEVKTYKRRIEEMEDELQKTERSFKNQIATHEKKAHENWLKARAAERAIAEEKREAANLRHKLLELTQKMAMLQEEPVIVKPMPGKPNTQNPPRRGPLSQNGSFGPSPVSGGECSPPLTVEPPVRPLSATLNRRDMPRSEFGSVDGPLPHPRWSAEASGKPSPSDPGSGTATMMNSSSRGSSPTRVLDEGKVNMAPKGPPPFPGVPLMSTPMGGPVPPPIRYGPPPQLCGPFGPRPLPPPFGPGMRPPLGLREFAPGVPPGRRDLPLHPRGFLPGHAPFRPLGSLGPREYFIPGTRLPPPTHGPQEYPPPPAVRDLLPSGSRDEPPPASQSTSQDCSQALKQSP
UniProt P16455: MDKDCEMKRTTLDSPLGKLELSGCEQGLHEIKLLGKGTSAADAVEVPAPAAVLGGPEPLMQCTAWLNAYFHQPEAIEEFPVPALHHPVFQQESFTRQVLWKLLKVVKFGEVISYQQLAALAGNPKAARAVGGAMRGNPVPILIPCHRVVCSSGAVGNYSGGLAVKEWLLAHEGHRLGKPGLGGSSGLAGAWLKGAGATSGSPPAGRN
UniProt A0JLT2: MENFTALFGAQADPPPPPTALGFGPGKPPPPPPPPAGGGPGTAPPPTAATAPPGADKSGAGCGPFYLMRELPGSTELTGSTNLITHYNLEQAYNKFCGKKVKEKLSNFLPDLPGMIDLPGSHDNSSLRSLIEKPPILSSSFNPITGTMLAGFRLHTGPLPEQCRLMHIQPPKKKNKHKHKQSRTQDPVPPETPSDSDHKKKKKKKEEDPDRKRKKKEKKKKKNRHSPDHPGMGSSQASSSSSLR

What follows are targets tested with ClCC(=O)N[C@H]1CCCc2ccccc12 (assay: log2 mean competition ratio of IA-DTB cysteine labelling (DMSO/compound) (log2 ratio); higher = stronger cysteine engagement by compound). Details: 200 µM; treatment time: 4 h; cell line lysate: HEK293T.
Protocol: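 IA-DTB competitive cysteine chemoproteomics in HEK293T RIPA lysate. Lysates were treated with compound 29 or 30 at 50 or 200 µM for 4 h, then IA-DTB (500 µM, 1 h), trypsin-digested, NeutrAvidin-enriched and analysed by diaPASEF. Competition ratio = intensity DMSO / intensity compound (n=4 treated, n=64 DMSO); binding: mean log2 CR ≥ 1 and p ≤ 0.05 plus QC filters. Target is the cysteine site.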
In the case of MKLN1 C411 (UniProt Q9UL63), the “log2 mean competition ratio” value is reported as 0.0798.
MOB4 C51 (UniProt Q9Y3A3) was tested, and the “log2 mean competition ratio” value was -0.203.
With MFSD6 C743 (UniProt Q6ZSS7) the “log2 mean competition ratio” value was -0.0421.
In the case of MKLN1 C560 (UniProt Q9UL63), the “log2 mean competition ratio” value is reported as 0.0526.
For METTL7A C96 (UniProt Q9H8H3), the “log2 mean competition ratio” value was 0.0742.
With MKI67 C3199 (UniProt P46013) the “log2 mean competition ratio” value was 0.134.
With MMTAG2 C179 (UniProt Q9BU76) the “log2 mean competition ratio” value was -0.102.
With MRNIP C300 (UniProt Q6NTE8) the “log2 mean competition ratio” value was 0.597.
In the case of MGAT1 C303 (UniProt P26572), the “log2 mean competition ratio” value is reported as 0.0202.
With MPG C61 (UniProt P29372) the “log2 mean competition ratio” value was -0.0225.
With MICU1 C62 (UniProt Q9BPX6) the “log2 mean competition ratio” value was -0.182.
In the case of MICAL3 C1760 (UniProt Q7RTP6), the “log2 mean competition ratio” value is reported as -0.157.
MLLT6 C820 was tested, and the “log2 mean competition ratio” value was -0.156.
In the case of MKI67 C226 (UniProt P46013), the “log2 mean competition ratio” value is reported as 0.019.
MED9 C75 (UniProt Q9NWA0) was tested, and the “log2 mean competition ratio” value was 0.241.
With MIPEP C281 (UniProt Q99797) the “log2 mean competition ratio” value was 0.305.
In the case of MEPCE C153 (UniProt Q7L2J0), the “log2 mean competition ratio” value is reported as -0.204.
For MPHOSPH9 C910 (UniProt Q99550), the “log2 mean competition ratio” value was -0.145.
In the case of MFSD5 C33 (UniProt Q6N075), the “log2 mean competition ratio” value is reported as 0.237.
MED13 C1399 (UniProt Q9UHV7) was tested, and the “log2 mean competition ratio” value was 0.0284.
In the case of MLH1 C233 (UniProt P40692), the “log2 mean competition ratio” value is reported as 0.111.
With MDN1 C4259 (UniProt Q9NU22) the “log2 mean competition ratio” value was -0.317.
MOB4 C134 (UniProt Q9Y3A3) was tested, and the “log2 mean competition ratio” value was -0.0457.
MORC4 C349 was tested, and the “log2 mean competition ratio” value was -0.116.
With MMS19 C599 (UniProt Q96T76) the “log2 mean competition ratio” value was -0.261.
MOB4 C119 (UniProt Q9Y3A3) was tested, and the “log2 mean competition ratio” value was -0.129.
For MIEF1 C165, the “log2 mean competition ratio” value was -0.0301.
In the case of MMUT C560 (UniProt P22033), the “log2 mean competition ratio” value is reported as 0.033.
For MIA2 C1187 (UniProt Q96PC5), the “log2 mean competition ratio” value was 0.292.
For MKRN2 C337 (UniProt Q9H000), the “log2 mean competition ratio” value was -0.0805.
MLLT1 C5 (UniProt Q03111) was tested, and the “log2 mean competition ratio” value was -0.291.
With MIA3 C1486 (UniProt Q5JRA6) the “log2 mean competition ratio” value was 0.0803.
In the case of MPP1 C179 (UniProt Q00013), the “log2 mean competition ratio” value is reported as -0.12.
With MEPCE C429 (UniProt Q7L2J0) the “log2 mean competition ratio” value was 0.195.
MGMT C150 (UniProt P16455) was tested, and the “log2 mean competition ratio” value was -0.412.
MLH1 C494 (UniProt P40692) was tested, and the “log2 mean competition ratio” value was 0.00108.
With MED19 C163 (UniProt A0JLT2) the “log2 mean competition ratio” value was 0.0665.
With MPP1 C242 (UniProt Q00013) the “log2 mean competition ratio” value was -0.154.
